For 42 sequences, binding signal results are on record in publication PMC7819943, “Rice protein-binding microarrays: a tool to detect cis-acting elements near promoter regions in rice”.

The chains behind the UniProt entries cited, without tags or fusion partners.
UniProt Q0JBA9, entry or part of it: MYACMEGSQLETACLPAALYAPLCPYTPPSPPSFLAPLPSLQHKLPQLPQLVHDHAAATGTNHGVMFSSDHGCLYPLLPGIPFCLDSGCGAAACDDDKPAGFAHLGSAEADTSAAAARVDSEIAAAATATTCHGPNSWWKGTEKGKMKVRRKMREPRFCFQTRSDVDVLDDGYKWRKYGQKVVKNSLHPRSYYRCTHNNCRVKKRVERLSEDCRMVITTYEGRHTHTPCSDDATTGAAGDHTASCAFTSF

Some of the results follow.

The test addresses OsWRKY34 (Oryza sativa, UniProt Q0JBA9 1-250). Nature of the test: protein-binding microarray (RPBM); PBS, 2% BSA, 51.3 ng/ul salmon testes DNA, 50 uM zinc acetate, 200 nM TF, 25 C, 1 h; high values mean tight binding. The following applies: protein: recombinant; tags: N-terminal polyhistidine and DsRed monomer fusion (pET32a); label: CyDye5-dUTP incorporated in the synthesized complementary strand; 3' TTTTT single-stranded linker to array surface; dsDNA, one strand shown. The method, boiled down: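 Binding signal is reported as fluorescence intensity per feature (arbitrary units) from an Axon 4000B scanner. Incubation used 200 nM of each Ni–NTA-purified, N-terminally polyhistidine- and DsRed-fused transcription factor from E. coli BL21-CodonPlus on a double-stranded custom Agilent array for 1 h at 25 °C, with 50 µM zinc acetate in the buffer, followed by washing.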
As for “TCGGGGAAGCATTTGTTTGGGAGAGTTTAAGATTATAAGACGGAGTCACCTAGTGCAG”, the binding signal is 8040 fluorescence intensity (a.u.).
Under “TCCGCTGCCTTCGATTCTTGGTAAGCCCCTAATTCTCCTTCGGAGTCACCTAGTGCAG” stands 8420 fluorescence intensity (a.u.); under “TGGATTTAGGATGTTACTTTGATTTGGGGATTTGGGGTTTCGGAGTCACCTAGTGCAG”, 17200 fluorescence intensity (a.u.).
Turning to “ATACTTCTCTCTCTCTCTTTCATTTTCAACTATAGAAATTCGGAGTCACCTAGTGCAG”, the binding signal is 8710 fluorescence intensity (a.u.).
Under “CCTCTTCACCGACTTGCTTCTCGGCTTCGTCTTGGATTTGCGGAGTCACCTAGTGCAG” stands 14900 fluorescence intensity (a.u.); under “ATGTTTACGTGCAACACATTATGGTTCTCTTCTCTGTAAACGGAGTCACCTAGTGCAG”, 8230 fluorescence intensity (a.u.); under “CTCCCGCCGCTGTCTCCGCCCCTCCTCCTGCCGTCGTCCCCGGAGTCACCTAGTGCAG”, 8140 fluorescence intensity (a.u.).
Under “CCGTTGGCCGCCCATCCTCGTCTCCCATTTGCTGATCAACCGGAGTCACCTAGTGCAG” stands 9880 fluorescence intensity (a.u.); under “CACACGCTCTCAACTCACTCCCGCTCAACACAGCGCTCACCGGAGTCACCTAGTGCAG”, 11000 fluorescence intensity (a.u.); under “AATATGTAGCCCGCTGATTATCTCTCTCTCTTTTTTTTTTCGGAGTCACCTAGTGCAG”, 9170 fluorescence intensity (a.u.).
The value for “CCTCGTTTGGAGGTTGCAACTTTTTAATTTTCTGTTAGCACGGAGTCACCTAGTGCAG” was 8960 fluorescence intensity (a.u.); that for “AAAACCCCAACTTTTTATTTCCTGCCGTTTTCTTTTTCTTCGGAGTCACCTAGTGCAG” was 8100 fluorescence intensity (a.u.).
“TTTGTCATACCGGATCTGTCCTTATTTTATGGTTGTTCAACGGAGTCACCTAGTGCAG”: the binding signal was 9560 fluorescence intensity (a.u.).
Under “TCATATCATTCCTACTCAACCATAGAGCCCAACATATAGCCGGAGTCACCTAGTGCAG” stands 9290 fluorescence intensity (a.u.); under “CCCATCTCCACCCGTCCATTTTTCCAACGTTCTAGATCCACGGAGTCACCTAGTGCAG”, 14100 fluorescence intensity (a.u.); under “TTGCCCTACACGAACGGGTCCGGACCTATTTCAGCTGTACCGGAGTCACCTAGTGCAG”, 8540 fluorescence intensity (a.u.).
Under “CTCGGTAGCTAATACTACTTTACTTTATTACTGTCGTTTTCGGAGTCACCTAGTGCAG” stands 10200 fluorescence intensity (a.u.).
Under “GCCATCCTTGTCTCAACTACTCGTCAAGTTGCTCCACATGCGGAGTCACCTAGTGCAG” stands 9050 fluorescence intensity (a.u.).
For the sequence “ACTCTGAGGTCCTTTCTCTATTGGACCCATCATCATCAGCCGGAGTCACCTAGTGCAG”, the binding signal is 9130 fluorescence intensity (a.u.).
Under “ACTCGATCGAGAGCTCCAACCACTCTCAAAATTTACACCTCGGAGTCACCTAGTGCAG” stands 8510 fluorescence intensity (a.u.).
Consider “AAACCCCTTCAGTTAATCTGTTCGTTGACCAAGTTTAATTCGGAGTCACCTAGTGCAG”, for which the binding signal was 13300 fluorescence intensity (a.u.).
The value for “GAGAGTTAGGGGTTGAGATATCCGGTTCTGTGGTTTGGGGCGGAGTCACCTAGTGCAG” was 9020 fluorescence intensity (a.u.); that for “AACTCGATCTCTGCCTCCGACTTCGCTTCAATCTAATCTTCGGAGTCACCTAGTGCAG” was 12900 fluorescence intensity (a.u.); that for “ATCATGTGTGTTCTCTCTCTCCCTCTCTCTGTTTTTTGGGCGGAGTCACCTAGTGCAG” was 9200 fluorescence intensity (a.u.).
For “CCGCCCACCCGCCTTAGCATCCACCGCCTTTGCCTATGCGCGGAGTCACCTAGTGCAG”, the binding signal was 16300 fluorescence intensity (a.u.).
Under “ACTACCACCTTCTCTTGCCGTGTTTAATCCGTCCCCGCTCCGGAGTCACCTAGTGCAG” stands 9690 fluorescence intensity (a.u.); under “AGGGATTTTAATTGGATGCGATACGTCTGGACAGGCTTCACGGAGTCACCTAGTGCAG”, 8060 fluorescence intensity (a.u.); under “ACAACATTTAAAACTACAAAGACTGCAGATCTACATATTTCGGAGTCACCTAGTGCAG”, 8260 fluorescence intensity (a.u.).
“AAGTAGGGTTAGGTTCATAGACCATAGATGCGCGGATCATCGGAGTCACCTAGTGCAG”: the binding signal was 9550 fluorescence intensity (a.u.).
Under “GACTTTGCTTTTTCTTTTTCTTCGATTAATGTGAGAATTTCGGAGTCACCTAGTGCAG” stands 11200 fluorescence intensity (a.u.).
Under “TAGTTGTGGCTTTGGGTGGTTGTTCTATTTTTGGGACAAACGGAGTCACCTAGTGCAG” stands 8830 fluorescence intensity (a.u.); under “CCGGTCACCATCGCCGTCATCACCGCGCCCCTCGATCCGACGGAGTCACCTAGTGCAG”, 8610 fluorescence intensity (a.u.).
The value for “TGTACTACGAACATGTTGCTCCTGTTATACATTAGTTTCCCGGAGTCACCTAGTGCAG” was 8310 fluorescence intensity (a.u.); that for “TCCTCTTGCAAAAAAAACACACACACACACGCACACAACTCGGAGTCACCTAGTGCAG” was 10200 fluorescence intensity (a.u.); that for “GCCCACACCGCCGCAATATAAACCCGTCCTCATCACACACCGGAGTCACCTAGTGCAG” was 11500 fluorescence intensity (a.u.).
Regarding “AATAGAGTGCATATCAGTTCTTGCTACCATACCCTCTTTTCGGAGTCACCTAGTGCAG”, the binding signal is 9490 fluorescence intensity (a.u.).
The value for “TTCTGCTAGTTTGGACATCTTTTTTTGCTTTGTTCCATGACGGAGTCACCTAGTGCAG” was 9670 fluorescence intensity (a.u.); that for “AATCCATTATCCATTCCTTTCCTTTCCGGTGACATGTAGTCGGAGTCACCTAGTGCAG” was 8270 fluorescence intensity (a.u.).
Under “ATTCGTCGGGGAATCGCAATTTTGTGGGTTTGGGGCTGACCGGAGTCACCTAGTGCAG” stands 10000 fluorescence intensity (a.u.); under “CCTAAATGTTTGACACCGTTGACTTTTTTAAACATATTTGCGGAGTCACCTAGTGCAG”, 33000 fluorescence intensity (a.u.).
The value for “GTTCAGGATGCTGCTGCGTCTTCCGTGCGCGCGCGGCCCCCGGAGTCACCTAGTGCAG” was 8360 fluorescence intensity (a.u.).
For “GCTTTGGTGTTTTAATTTCTCTCTATTTTGCTCTGCTGCTCGGAGTCACCTAGTGCAG”, the binding signal is 11100 fluorescence intensity (a.u.).
